Source: PubChem BioAssay AID1159584 (Peter MacCallum Cancer Centre, 2016)
Assay: 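Knock-downs that harm CDH1-null cells more than parental MCF10A cells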 (primary screen). System: human MCF10A breast epithelial cells, parental and CDH1-null. Reagents: siRNA against human genes. Measured: 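ATP luminescence (CellTiter-Glo) viability per line relative to mean mock wells over all plates, and the ratio of CDH1-null to parental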. Scale: CDH1-null / parental viability ratio: higher = CDH1-null cells survive relatively better than parental; CDH1-null viability vs mock: higher = more viable CDH1-null cells.
The deposit covers about 18,000 reagents; this is a random part of them. Not all columns of the deposit are shown. The record does not give: the amount of reagent, the time to read-out.

gene	CDH1-null / parental viability ratio	CDH1-null viability vs mock (fraction of mock)
FBXL7	1.06	0.9
FOXL2	1	0.95
RGS5	0.96	0.67
UCP1	0.93	1.11
PDGFD	0.71	0.64
PAG1	1.02	0.98
STAU2	1.22	1.1
ITIH5	0.9	0.81
MARVELD2	1.15	0.91
BFSP2	1.17	1.05
KCMF1	1.18	0.92
MEGF6	1.12	0.38
BTLA	0.82	0.62
PREPL	1	0.82
AQP11	0.92	0.82
CHD2	0.95	0.84
H3-4	1.22	0.56
ADAM8	1.36	0.76
SOCS1	1.03	0.96
HABP4	0.89	0.91
TPH2	0.95	0.75
F2RL3	1.63	0.78
INHBE	1.32	0.86
LPGAT1	1.13	1.12
F8A1	0.99	0.75
OR2B2	0.97	1.16
NRN1L	0.7	0.38
NPTXR	0.9	0.61
NAIP	1.05	0.96
LURAP1L	0.9	0.91
PLXNA1	1.05	1.05
KYAT1	1.06	1
ALDH9A1	0.92	0.78
B3GNT3	0.95	0.96
IFT43	1	0.92
ADAMTS13	1.21	0.85
ABCF2	0.98	0.88
CA10	0.98	0.56
SPEF2	0.95	0.82
PSMD4	1.31	0.72
FNDC3A	0.99	0.91
FAM13C	1.05	0.88
STAG3	0.84	0.57
MOGS	0.81	0.7
CDH6	1	0.62
CCDC116	0.99	0.8
NHSL3	1.27	0.76
NGDN	1.07	0.74
HKDC1	0.95	0.76
WNT1	1.19	0.82
AMZ1	1.13	0.44
CRISP2	1.18	0.92
HYPK	1.03	0.6
PLSCR5	1.05	1.01
CD37	0.91	0.7
SMR3A	1.16	0.72
LUC7L3	1.02	0.58
DMRT3	0.81	0.76
IGSF3	1.13	0.89
MUC13	1.11	1.03
UBE2I	1.22	0.61
NKD2	0.84	0.8
NCOA7	1.03	0.78
ZNF69	1.24	0.62
TCF4	0.99	0.92
TFAP4	1.03	0.92
HMBS	0.77	0.57
HLA-DMB	0.88	0.72

Taken from above.
For “CDH1-null / parental viability ratio”, BFSP2 reads 1.17
Result for AMZ1 under “CDH1-null viability vs mock (fraction of mock)”: 0.44
Entry of ADAMTS13 under “CDH1-null / parental viability ratio”: 1.21
MEGF6, CDH1-null viability vs mock (fraction of mock) = 0.38
